From patent publication US20150225457A1
Results are given in words; binding and its absence hold for the method and conditions named. Some results given as binding are weak or reduced against the parent protein; the word gives no strength. Sequences can lack the tags named with a protein.

The chains behind the UniProt entries cited, without tags or fusion partners. Residues count along the entry.
UniProt Q8VIM0, residues 20-281: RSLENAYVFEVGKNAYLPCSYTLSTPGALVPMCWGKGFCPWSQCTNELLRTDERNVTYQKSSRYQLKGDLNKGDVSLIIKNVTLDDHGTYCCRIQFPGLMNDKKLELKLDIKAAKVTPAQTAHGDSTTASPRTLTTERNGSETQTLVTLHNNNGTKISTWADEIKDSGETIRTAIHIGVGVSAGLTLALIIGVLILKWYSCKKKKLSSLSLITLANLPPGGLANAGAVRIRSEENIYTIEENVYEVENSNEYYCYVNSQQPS

Experiments:
[1] = biological target: TIM3 transgenically overexpressed on primary mouse T cells (human CD2 promotor) (UniProt Q8VIM0); assay: flow cytometry, staining of primary T cells of TIM3Tg CEACAM1KO mice with CEACAM1-NFc-APC, MFI with CEACAM1KO mice set as 1
[2] = biological target: TIM3 transgenically overexpressed on primary mouse T cells (human CD2 promotor) (UniProt Q8VIM0); assay: flow cytometry staining of primary TIM3 Tg T cells with mouse N-domain-Fc (FIG. 9)
[3] = biological target: TIM3 transgenically overexpressed on primary mouse T cells (human CD2 promotor) (UniProt Q8VIM0); assay: flow cytometry, staining of primary T cells of TIM3Tg WT mice with CEACAM1-NFc-APC, MFI with CEACAM1KO mice set as 1

Measured: binding

B1: mouse CEACAM1 N-domain Fc fusion protein (Fc fusion, UniProt P31809 35-142, looked up, not shown: a dimerising Fc or GST)
chain: EVTIEAVPPQVAEDNNVLLLVHNLPLALGAFAWYKGNTTAIDKEIARFVPNSNMNFTGQAYSGREIIYSNGSLLFQMITMKDMGVYTLDMTDENYRRTQATVRFHVHP
binds: all assays above
